Laboratory results as given in publication PMC3735541.
Results are given in words; binding and its absence hold for the method and conditions named. Some entries that bind do so weakly or less than the wild type.

Sequences of proteins named here, by UniProt entry; tags and fusion partners are left off.
UniProt P18887: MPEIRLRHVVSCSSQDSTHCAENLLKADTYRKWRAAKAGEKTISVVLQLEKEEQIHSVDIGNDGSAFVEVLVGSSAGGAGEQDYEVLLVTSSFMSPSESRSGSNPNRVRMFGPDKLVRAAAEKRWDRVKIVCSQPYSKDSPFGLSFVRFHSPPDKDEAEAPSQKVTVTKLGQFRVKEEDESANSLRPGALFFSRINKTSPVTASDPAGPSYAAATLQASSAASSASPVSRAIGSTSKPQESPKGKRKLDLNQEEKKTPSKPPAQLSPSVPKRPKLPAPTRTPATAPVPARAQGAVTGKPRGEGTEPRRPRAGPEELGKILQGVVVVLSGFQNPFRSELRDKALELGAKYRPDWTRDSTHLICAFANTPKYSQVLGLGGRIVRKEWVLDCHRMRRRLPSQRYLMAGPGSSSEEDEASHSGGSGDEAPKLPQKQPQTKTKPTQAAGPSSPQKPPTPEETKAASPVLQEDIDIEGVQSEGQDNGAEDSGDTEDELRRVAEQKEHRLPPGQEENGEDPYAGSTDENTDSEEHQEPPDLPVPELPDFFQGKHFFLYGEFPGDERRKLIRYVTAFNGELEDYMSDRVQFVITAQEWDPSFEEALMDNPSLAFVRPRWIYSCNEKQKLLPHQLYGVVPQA
UniProt P27695: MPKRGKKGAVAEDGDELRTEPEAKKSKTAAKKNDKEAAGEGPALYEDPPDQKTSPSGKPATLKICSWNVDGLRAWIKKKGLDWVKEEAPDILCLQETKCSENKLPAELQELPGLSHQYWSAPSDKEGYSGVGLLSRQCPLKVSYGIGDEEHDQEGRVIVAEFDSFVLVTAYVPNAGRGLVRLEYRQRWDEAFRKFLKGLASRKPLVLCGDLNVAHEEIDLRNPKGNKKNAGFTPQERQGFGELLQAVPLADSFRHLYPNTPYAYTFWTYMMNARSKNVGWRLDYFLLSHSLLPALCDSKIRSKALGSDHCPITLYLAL

Biological target: human X-ray crosscomplementing protein 1 (hXRCC1), full-length, with an N-terminal histidine tag (human) (UniProt P18887)
Experiment: pull-down; 350 pmol His-tagged hXRCC1 incubated 1 h with 114 pmol hAPE1 or 130 pmol DNA polymerase beta in 40 ul; Ni-NTA agarose added, washed with 25 mM imidazole, eluted with 250 mM imidazole; SDS-PAGE with Coomassie staining; according to ref. 18 with minor changes; both purified

**Q.** “human apurinic/apyrimidinic endonuclease 1 (hAPE1) (from UniProt P27695 1-318) (enzyme; other documents disagree on this pair)” was tested. Which binding did it give?
**A.** Its binding is “binds”.
